# Source: the supplement of paper PMC3334620
# The full ranking holds about 33,000 sequences; the median of “E-score (-0.5 to 0.5)” is about -0.016, and the highest 2% start at about 0.3. Some of the results follow.
# Target: T1, Yer184c (UniProt P39961)
# T1 sequence: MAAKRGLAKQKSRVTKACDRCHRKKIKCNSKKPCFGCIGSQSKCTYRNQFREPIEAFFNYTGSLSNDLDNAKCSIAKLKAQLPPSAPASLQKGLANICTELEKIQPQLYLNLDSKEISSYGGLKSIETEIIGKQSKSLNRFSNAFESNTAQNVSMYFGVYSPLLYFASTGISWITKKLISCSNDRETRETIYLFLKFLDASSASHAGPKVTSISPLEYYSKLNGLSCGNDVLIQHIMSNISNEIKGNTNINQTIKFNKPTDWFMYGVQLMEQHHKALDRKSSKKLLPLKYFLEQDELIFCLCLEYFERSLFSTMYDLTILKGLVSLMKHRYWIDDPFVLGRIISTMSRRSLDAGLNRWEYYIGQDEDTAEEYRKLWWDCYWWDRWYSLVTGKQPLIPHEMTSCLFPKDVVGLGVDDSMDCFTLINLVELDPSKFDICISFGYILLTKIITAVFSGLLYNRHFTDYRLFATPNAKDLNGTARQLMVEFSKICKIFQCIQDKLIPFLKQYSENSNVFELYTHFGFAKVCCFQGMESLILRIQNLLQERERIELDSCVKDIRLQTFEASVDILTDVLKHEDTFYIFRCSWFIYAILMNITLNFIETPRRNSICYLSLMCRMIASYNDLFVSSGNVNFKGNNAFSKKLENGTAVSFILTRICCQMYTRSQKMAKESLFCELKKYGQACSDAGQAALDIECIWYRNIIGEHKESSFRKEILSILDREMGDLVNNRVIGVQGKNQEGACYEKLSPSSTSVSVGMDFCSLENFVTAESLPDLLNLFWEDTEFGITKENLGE
# Experiment: PBM E-score (8-mer binding enrichment) (E-score (-0.5 to 0.5)); higher = stronger / more preferred TF binding
# Conditions: protein concentration: 100 nM; construct: GST-full length
# Method: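 Universal 'all 10-mer' protein binding microarrays (Agilent AMADID 015681) probed with GST-tagged S. cerevisiae TFs (full-length or DBD) made by in vitro transcription/translation (PURExpress), about 100-200 nM. Bound TF was detected with fluorescent anti-GST. Each ungapped 8-mer (which stands for itself and its reverse complement) is scored by the PBM enrichment score (E-score), a modified Wilcoxon-Mann-Whitney statistic from -0.5 to +0.5, computed with the Universal PBM Analysis Suite. Scale: above 0.35 generally sequence-specific binding.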
row,Sequence,PBM E-score
1,CCTATCAC,-0.125
2,CTGTCTCC,-0.00142
3,ACGCTCCT,-0.189
4,TACAGGTA,-0.108
5,AAATCACT,-0.0389
6,TGCTGAAA,0.044
7,AGCGCATC,-0.129
8,CATCGCGG,-0.0346
9,ATGCCATG,0.086
10,CGCAGCCC,-0.0156
11,GGACAGCC,0.146
12,GGCCGACA,0.0888
13,CGGCTTCC,0.198
14,AGCGGCCG,0.315
15,GCGCTAGC,-0.147
16,AACCCTCA,-0.154
17,CACATTGG,-0.101
18,ATCAATCA,0.105
19,CGGCTGAA,0.251
20,TAGGTTGA,-0.0777
21,ATCTGGAG,-0.0217
22,CCGTGTGC,0.0431

# A stretch of the results above, for reference:
row,Sequence,PBM E-score
7,AGCGCATC,-0.129
8,CATCGCGG,-0.0346

# The results go on:

row,Sequence,PBM E-score
1,GCAAGACC,-0.0498
2,CCTTCGGC,0.219
3,CAGGTTGC,-0.129
4,CCGGCTAG,0.277
5,GGCCACCC,-0.0721
6,GGGAGAAA,-0.0119
7,GTGTATTA,0.244
8,AGTGCACT,0.067
9,ACTGAACT,-0.0889
10,AGGCTGCA,0.0732
11,GACCTATA,0.202
12,CGCGTCTA,-0.135
13,AGCAACAG,0.0369
14,GCTCCGGA,0.367
15,ACGGTCTA,-0.0381
16,ACGTATTG,0.0567
17,GCACGGAC,0.25
18,TGCTTACA,-0.192
19,ATACGCCC,-0.178
20,GAGGGGGC,-0.348
21,CATTACTA,0.0248
22,AGGTTCTA,-0.0623

# Part of the list above, set out differently.
row | Sequence | PBM E-score
14 | GCTCCGGA | 0.367
15 | ACGGTCTA | -0.0381

# Next part:

row,Sequence,PBM E-score
1,CAAGCAGC,-0.149
2,ATCCACGA,0.0174
3,CACTGTAA,0.0883
4,CTGACACA,-0.0218
5,ATAAGAAG,0.192
6,ACAAGAGT,-0.0446
7,ATGTTCAG,-0.184
8,GAAATCAA,0.00161
9,CAGTTCGC,0.0556
10,AATAAAGC,0.0919
11,CATATTGG,-0.0997
12,CGATAGAA,-0.0119
13,CTTGGCGC,-0.0386
14,ACCGGAGG,0.144
15,AGACCCCA,-0.121
16,TGAGCCCA,-0.253
17,ATGAGACG,-0.0493
18,ACAGAGGA,-0.12
19,ACGGATCG,0.0937
20,AGGATCGG,-0.0772
21,AGACCCGC,-0.0884
22,TAAATCAA,0.169

row,Sequence,PBM E-score
1,GATCAGCA,0.00853
2,GAAAACTC,0.122
3,ATTCGTTC,0.146
4,ATCTGAGC,0.0694
5,AGAAGGAC,-0.191
6,CTGAGATC,-0.0829
7,GTTTAGAA,0.112
8,GTTCATTA,0.164
9,CAGTCTTA,-0.0806
10,GGCCCGCC,-0.107
11,GAAAATAA,0.226
12,CATTGCTC,0.032
13,AACTAAGC,0.161
14,ACCAGGTG,-0.17
15,GAGACCCA,-0.242
16,AAGTTGGG,-0.198
17,TACCTCTA,0.00982
18,CTCCGAGA,0.247
19,CAGGGAGA,-0.138
20,ACGACGGA,0.121
